In PMC8954901, “The Family Keeps on Growing: Four Novel Fungal OYEs Characterized” (International Journal of Molecular Sciences, 2022):
No constants are given. Whether binding was seen depends on the method and setting. Binding seen in cells or lysates may run through a third protein. A result given as binding can be weak or reduced; the word gives no strength.

Sequences of proteins named here, by UniProt entry; tags and fusion partners are left off. A change or cut given only in a name is not applied to a line headed by its entry.
UniProt A5AB78: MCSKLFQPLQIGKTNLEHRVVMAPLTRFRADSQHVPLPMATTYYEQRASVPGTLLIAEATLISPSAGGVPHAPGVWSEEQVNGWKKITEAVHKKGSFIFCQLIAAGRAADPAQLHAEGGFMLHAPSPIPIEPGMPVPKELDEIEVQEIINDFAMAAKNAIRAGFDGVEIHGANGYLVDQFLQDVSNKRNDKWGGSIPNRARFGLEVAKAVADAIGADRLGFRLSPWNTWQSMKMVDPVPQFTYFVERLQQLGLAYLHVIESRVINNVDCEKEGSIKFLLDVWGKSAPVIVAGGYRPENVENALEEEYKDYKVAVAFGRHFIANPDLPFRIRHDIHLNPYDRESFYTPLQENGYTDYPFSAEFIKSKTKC
UniProt Q8KM30: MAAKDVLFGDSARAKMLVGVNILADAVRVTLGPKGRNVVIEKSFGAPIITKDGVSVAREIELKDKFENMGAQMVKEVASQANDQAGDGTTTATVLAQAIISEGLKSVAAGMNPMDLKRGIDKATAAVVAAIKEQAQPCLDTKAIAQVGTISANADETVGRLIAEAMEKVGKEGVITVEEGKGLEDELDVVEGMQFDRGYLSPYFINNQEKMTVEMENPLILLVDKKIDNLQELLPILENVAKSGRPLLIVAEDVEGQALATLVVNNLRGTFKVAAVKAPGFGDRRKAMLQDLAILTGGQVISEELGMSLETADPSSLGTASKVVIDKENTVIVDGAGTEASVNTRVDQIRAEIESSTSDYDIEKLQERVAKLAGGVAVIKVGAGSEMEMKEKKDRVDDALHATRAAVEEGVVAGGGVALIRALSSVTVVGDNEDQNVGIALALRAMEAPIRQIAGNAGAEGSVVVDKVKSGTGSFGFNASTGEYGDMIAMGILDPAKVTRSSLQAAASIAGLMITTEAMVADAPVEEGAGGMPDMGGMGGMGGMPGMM

Target: AnOYE2 (Aspergillus niger CBS 513.88) (UniProt A5AB78)
Experiment: co-purification on Ni-NTA (IMAC); His6-tagged enzyme purified at a low temperature from the soluble fraction of E. coli BL21 (DE3) Arctic cells; Cpn60 found in the preparation

In the case of “chaperonin Cpn60 (from UniProt Q8KM30 1-548)”, the binding was “binds”.
